These results are taken from patent US20130065969A9, “Odour Compounds” (priority 2009, published 2013).

A short description of this series: Odour description. The following applies: neat compound.

For `CC/C=C(\C)C(C)OC(C)(C)COC(=O)C1CC1` (centres unmarked) [Example 1, (3″E)-2′-Methyl-2′-(3″-methylhex-3″-en-2″-yloxy)propyl cyclopropanecarboxylate], the Odour description result was “musky, powdery, spicy with peppery aspects and some reminiscence to Cashmeran”. As for `CC/C(=C\C(C)C)C(C)OC(C)(C)COC(=O)C1CC1` (centres unmarked) [Example 2, (3″E)-2′-(3″-Ethyl-5″-methylhex-3″-en-2″yloxy)-2′-methylpropyl cyclopropanecarboxylate], the Odour description entry is “musky, powdery with slightly waxy facets and some reminiscence to macrocyclic musks”.
